From PMC10962057
These are yes or no findings as the source states them, for the method shown. In cells and extracts the contact can be indirect. Some results given as binding are weak or reduced against the parent protein; the word gives no strength.

Target: T1, Thioredoxin-interacting protein (TXNIP) (human (endogenous in IMR90)) (UniProt Q9H3M7)
T1 sequence: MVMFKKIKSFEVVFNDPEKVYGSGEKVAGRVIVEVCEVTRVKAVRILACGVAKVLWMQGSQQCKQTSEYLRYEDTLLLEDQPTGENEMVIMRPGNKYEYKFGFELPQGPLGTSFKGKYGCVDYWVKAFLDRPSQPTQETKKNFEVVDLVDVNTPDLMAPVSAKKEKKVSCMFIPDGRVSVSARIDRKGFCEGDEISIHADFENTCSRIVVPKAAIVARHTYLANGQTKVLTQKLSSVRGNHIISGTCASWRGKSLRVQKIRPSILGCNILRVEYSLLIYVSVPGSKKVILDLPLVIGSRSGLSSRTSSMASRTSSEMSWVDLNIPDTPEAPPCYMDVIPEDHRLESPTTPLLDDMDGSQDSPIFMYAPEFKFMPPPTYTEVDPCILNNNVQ
Experiment: co-IP; IMR90 cell lysates immunoprecipitated with TXNIP antibody (rabbit IgG as control), immunoblotting with USP13 antibody

binding: binds
B1: ubiquitin-specific protease-13 (USP13) (enzyme, UniProt Q92995 1-863)
chain: MQRRGALFGMPGGSGGRKMAAGDIGELLVPHMPTIRVPRSGDRVYKNECAFSYDSPNSEGGLYVCMNTFLAFGREHVERHFRKTGQSVYMHLKRHVREKVRGASGGALPKRRNSKIFLDLDTDDDLNSDDYEYEDEAKLVIFPDHYEIALPNIEELPALVTIACDAVLSSKSPYRKQDPDTWENELPVSKYANNLTQLDNGVRIPPSGWKCARCDLRENLWLNLTDGSVLCGKWFFDSSGGNGHALEHYRDMGYPLAVKLGTITPDGADVYSFQEEEPVLDPHLAKHLAHFGIDMLHMHGTENGLQDNDIKLRVSEWEVIQESGTKLKPMYGPGYTGLKNLGNSCYLSSVMQAIFSIPEFQRAYVGNLPRIFDYSPLDPTQDFNTQMTKLGHGLLSGQYSKPPVKSELIEQVMKEEHKPQQNGISPRMFKAFVSKSHPEFSSNRQQDAQEFFLHLVNLVERNRIGSENPSDVFRFLVEERIQCCQTRKVRYTERVDYLMQLPVAMEAATNKDELIAYELTRREAEANRRPLPELVRAKIPFSACLQAFSEPENVDDFWSSALQAKSAGVKTSRFASFPEYLVVQIKKFTFGLDWVPKKFDVSIDMPDLLDINHLRARGLQPGEEELPDISPPIVIPDDSKDRLMNQLIDPSDIDESSVMQLAEMGFPLEACRKAVYFTGNMGAEVAFNWIIVHMEEPDFAEPLTMPGYGGAASAGASVFGASGLDNQPPEEIVAIITSMGFQRNQAIQALRATNNNLERALDWIFSHPEFEEDSDFVIEMENNANANIISEAKPEGPRVKDGSGTYELFAFISHMGTSTMSGHYICHIKKEGRWVIYNDHKVCASERPPKDLGYMYFYRRIPS
